Out of some 580,000 compounds screened, about 6,100 (1.1%) were called active. Inconclusive means that the source gave no clear call. Such entries were picked first, then a sample of the others. The call rests on the fitted dose curve; in most records, active means well fitted inhibition curve with a large enough effect; inconclusive means small, poorly fitted or top-dose-only effect, or another doubt; inactive means no such curve, though single readings can be large or run the other way. Potencies of inconclusive entries are doubtful fits and often do not repeat.
Biological target: Polyunsaturated fatty acid lipoxygenase ALOX12 (Homo sapiens) (UniProt P18054)
Assay: Primary qHTS assay for inhibitors of human arachidonate 12S-lipoxygenase (ALOX12): Round 2
Conditions: purified 12hLO, xylenol orange hydroperoxide absorbance; series mostly up to 108 µM
Outline: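 Purified human 12hLO (150 nM final) in 25 mM Hepes, 0.01% Triton X-100, pH 7.0 was preincubated 15 min at room temperature with compound. Then 40 uM arachidonic acid was added, 30 min. Hydroperoxide was read by Fe-XO absorbance ratio 573/405 nm.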
Potency means the concentration at half of the fitted maximal effect.

Sequences of proteins named here, by UniProt entry; tags and fusion partners are left off. A change or cut given only in a name is not applied to a line headed by its entry.
UniProt P18054: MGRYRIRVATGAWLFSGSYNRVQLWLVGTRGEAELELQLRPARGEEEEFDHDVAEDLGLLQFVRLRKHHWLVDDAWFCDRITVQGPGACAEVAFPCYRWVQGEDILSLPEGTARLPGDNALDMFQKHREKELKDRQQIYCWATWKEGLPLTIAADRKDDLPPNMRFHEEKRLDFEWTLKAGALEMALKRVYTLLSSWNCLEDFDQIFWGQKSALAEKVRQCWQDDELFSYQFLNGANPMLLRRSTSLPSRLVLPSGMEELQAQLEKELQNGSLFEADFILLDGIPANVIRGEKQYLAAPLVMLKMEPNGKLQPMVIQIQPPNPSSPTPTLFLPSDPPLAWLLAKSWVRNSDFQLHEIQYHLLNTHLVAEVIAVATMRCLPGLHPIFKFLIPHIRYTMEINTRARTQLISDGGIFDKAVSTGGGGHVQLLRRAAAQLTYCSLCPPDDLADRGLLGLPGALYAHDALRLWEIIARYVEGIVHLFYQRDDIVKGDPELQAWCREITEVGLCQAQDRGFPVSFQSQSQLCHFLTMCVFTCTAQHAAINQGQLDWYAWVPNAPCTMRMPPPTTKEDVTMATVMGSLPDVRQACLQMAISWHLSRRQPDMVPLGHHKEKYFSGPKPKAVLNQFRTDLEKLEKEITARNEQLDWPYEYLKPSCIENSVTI

Structure (SMILES)	Potency
Cc1nc2scc(C)n2c(=O)c1S(=O)(=O)Nc1ccc(N2CCN(S(C)(=O)=O)CC2)cc1	inactive
CC(C)C[C@@H]1COc2cccc(NC3CC3)c2S(=O)(=O)N1	inconclusive: 28.2 µM [inhibitor, partial curve, poor fit]
CCc1ccc(OCC(O)Cn2c(N3CCCCC3)nc3c2c(=O)[nH]c(=O)n3C)cc1 (stereo not drawn)	inconclusive: 35.5 µM [inhibitor, partial curve, poor fit]
CC1(NC(=O)CC[N+](C)(C)CCO)CS(=O)(=O)CC1S(=O)(=O)[O-] (stereo not drawn)	inconclusive: 56.2 µM [inhibitor, partial curve, poor fit]
O=C(C1CCCC1)N1CCC2(C1)C(=O)N(CCc1ccccc1)c1ccccc12 (stereo not drawn)	inconclusive: 89.1 µM [inhibitor, partial curve, poor fit]
COc1ccc(C(=O)c2sc(Nc3ccccc3)nc2C)cc1	inconclusive: 89.1 µM [inhibitor, single point]
COc1ccc(NS(=O)(=O)c2cccc(C(=O)N3CCC3)c2)cc1	inconclusive: 3.98 µM [inhibitor, full curve, poor fit]
O=C(COc1ccc(Cl)cc1)N1CCN(Cc2ccc3c(c2)OCO3)CC1	inconclusive: 50.1 µM [inhibitor, partial curve, poor fit]
O=C(CCN1CCCCC1)Nc1c(-c2ccccc2)c2cc(Br)ccc2[nH]c1=O	inactive
CC(=O)CC[N+](C)(C)C	inconclusive: 56.2 µM [inhibitor, partial curve, poor fit]
Cn1c(=O)c2c(nc(N3CCN(c4ccccc4)CC3)n2Cc2ccccc2Cl)n(C)c1=O	inconclusive: 112 µM [inhibitor, single point]
CC(C)(C)C(=O)[C@@H]1[C@@H]2C(=O)N(C3CCCCC3)C(=O)[C@@H]2[C@H]2c3ccccc3C=CN12	inconclusive: 39.8 µM [inhibitor, partial curve, poor fit]
N#Cc1c(N)sc(=S)c2c1CCCCC2	inconclusive: 11.2 µM [inhibitor, partial curve, poor fit]
CCC(c1cnn(C)c1)n1ccnc1-c1ccc(SC)cc1 (stereo not drawn)	inactive
CCC(c1ccccc1)c1nc(-c2cccnc2)no1 (stereo not drawn)	inactive
CCCN(CC#N)CC(=O)NC(=O)NC1CC1	inactive
c1ccc(C(CNc2ncncn2)N2CCCCCC2)cc1 (stereo not drawn)	inactive
Cn1nnc(NC(=O)COc2ccc(Cl)cc2Cl)n1	inconclusive: 178 µM [inhibitor, partial curve, poor fit]
COC(=O)Cn1c(CN2CCN(c3cc(Cl)ccc3C)CC2)nc2c1c(=O)n(C)c(=O)n2C	inconclusive: 50.1 µM [inhibitor, partial curve, poor fit]
Cc1cc(OCC(=O)N2CCCCC2CCN2CCCCCC2)ccc1Cl (stereo not drawn)	inconclusive: 14.1 µM [inhibitor, single point]
CN(C)C(CNC(=O)NCC(c1cccs1)N(C)C)c1cccs1 (stereo not drawn)	inactive

A run of entries from the list above:
Structure (SMILES)	Potency
N#Cc1c(N)sc(=S)c2c1CCCCC2	inconclusive: 11.2 µM [inhibitor, partial curve, poor fit]
CCC(c1cnn(C)c1)n1ccnc1-c1ccc(SC)cc1 (stereo not drawn)	inactive
CCC(c1ccccc1)c1nc(-c2cccnc2)no1 (stereo not drawn)	inactive
CCCN(CC#N)CC(=O)NC(=O)NC1CC1	inactive

(continued)

Structure (SMILES)	Potency
COc1ccc(C2(C(=O)N3CCCC3c3nc(C4CCOCC4)no3)CC2)cc1 (stereo not drawn)	inconclusive: 31.6 µM [inhibitor, single point]
COc1ccc(C(CCN(Cc2ccc(OC)c(OC)c2)C(=O)CCl)c2ccccc2)cc1 (stereo not drawn)	inconclusive: 56.2 µM [inhibitor, partial curve, poor fit]
CCC1CN(C(=O)N2CCC(C(=O)NCCc3cc(OC)ccc3OC)CC2)c2ccccc2O1 (stereo not drawn)	inactive
CCCCS(=O)(=O)CCSS(=O)(=O)O	inconclusive: 112 µM [inhibitor, single point]
Cc1cc(C(=O)NC(C)c2ccccc2Cl)c2cnn(C(C)C)c2n1 (stereo not drawn)	inactive
Cc1cc(=O)c2cc(C(=O)Nc3nnc(CC(C)C)s3)ccc2[nH]1	inactive
COc1ccc(NC(=O)C(C)Sc2ccccc2C(=O)NCC(=O)C(C)(C)C)cc1OC (stereo not drawn)	inconclusive: 22.4 µM [inhibitor, partial curve, poor fit]
Cn1c(SCC(=O)Nc2cccc(C(=O)O)c2)nnc1-c1ccc(Cl)cc1	inactive
COc1cc(OC)cc(OC2(C)CCN(Cc3ccc(OC(C)C)cc3)C2)c1 (stereo not drawn)	inactive
O=C(Nc1ccccc1)Oc1ccc[nH]c1=O	inconclusive: 2.51 µM [inhibitor, full curve, poor fit]
Cc1cn(CC(=O)NCCCn2ccnc2)c(=O)[nH]c1=O	inconclusive: 56.2 µM [inhibitor, partial curve, poor fit]
Cc1cccc(NC(=O)Cc2nc(-c3c(N)n(Cc4ccccc4)c(=O)n(C)c3=O)cs2)c1	inconclusive: 56.2 µM [inhibitor, partial curve, poor fit]
O=C(c1cccs1)N(c1ccc(Br)cc1)C1C=CS(=O)(=O)C1 (stereo not drawn)	inconclusive: 35.5 µM [inhibitor, partial curve, poor fit]
CCOC(=O)C1=C(C)OC(=CC=Cc2ccccc2)C1=O	inconclusive: 44.7 µM [inhibitor, partial curve, poor fit]
COC(=O)Cc1cnc(NC(=O)CSc2nc(C(C)C)cc(=O)[nH]2)s1	inconclusive: 39.8 µM [inhibitor, partial curve]
Cc1ccc(NC(=O)N2CCc3cc(S(=O)(=O)N4CCC(C)CC4)ccc32)cc1	inactive
CCOc1ccccc1NC(=O)C1CCCN(S(C)(=O)=O)C1 (stereo not drawn)	inconclusive: 31.6 µM [inhibitor, partial curve, poor fit]
Cc1ccc(-c2cc(C(=O)N3CCN(C(=O)c4ccco4)CC3)c3ccccc3n2)cc1	inconclusive: 3.98 µM [inhibitor, full curve]
COc1cccc(-n2cc(C(=O)Nc3cccc(C(F)(F)F)c3)c3ccccc3c2=O)c1	inconclusive: 56.2 µM [inhibitor, partial curve, poor fit]
COc1ccc(-c2coc3cc(OCC(=O)NCc4ccccc4Cl)ccc3c2=O)cc1OC	inconclusive: 100 µM [inhibitor, partial curve, poor fit]
CCOC(=O)C1CCN(Cc2nc3ccc(Cl)cc3n2CCO)CC1	inconclusive: 0.224 µM [inhibitor, full curve, poor fit]

Structure (SMILES)	Potency
O=C(O)c1cc([N+](=O)[O-])cc([N+](=O)[O-])c1N1CCN(c2cccc(C(F)(F)F)c2)CC1	inconclusive: 50.1 µM [inhibitor, partial curve, poor fit]
CCCC(=O)Nc1ccc(-c2csc(N/N=C\c3ccncc3)n2)cc1	inconclusive: 50.1 µM [inhibitor, partial curve, poor fit]
Cc1cc([N+](=O)[O-])ccc1NC(=O)CSc1nncn1-c1ccccn1	inconclusive: 100 µM [inhibitor, partial curve, poor fit]
CCSc1nnc(NC(=O)CSc2nnc(C)c(=O)n2N)s1	inconclusive: 112 µM [inhibitor, single point]
Cc1cccc(C(=O)Nc2cccc(-c3nc4ccccc4o3)c2)c1	inactive
COc1ccc(N2CCN(C(c3ccccc3)c3nnnn3C(C)(C)C)CC2)cc1 (stereo not drawn)	inconclusive: 112 µM [inhibitor, single point]
O=C1Nc2ccc(-c3cccc(C(F)(F)F)c3)cc2C(=O)N2CCN(C(=O)NC3CCCCC3)C[C@H]12	inactive
CCCCN(C)CCCN1C(=O)C2C(C(=O)Nc3cccc(OC)c3)C3C=CC2(O3)C1C(=O)NC1CCCCC1C (stereo not drawn)	inconclusive: 100 µM [inhibitor, single point]
Cc1ccc(C(=O)N(CC(C)C)CC2CN(C(=O)Nc3cccc(Cl)c3)CCO2)cc1 (stereo not drawn)	inconclusive: 14.1 µM [inhibitor, full curve]
CCCCNC(=O)c1cn(-c2ccc(OCC)cc2)c(=O)c2cc(OC)c(OC)cc12	inactive
O=C(O)c1ccccc1C(=O)c1ccc2c(c1)N(Cc1ccc(Cl)c(Cl)c1)C(=O)CO2	inconclusive: 56.2 µM [inhibitor, partial curve, poor fit]
CCCn1c(=O)n(CC(=O)NCC(=O)Nc2cccc(C)c2C)c2ccccc21	inconclusive: 44.7 µM [inhibitor, partial curve, poor fit]
COCCCNC(=O)C[C@H]1C[C@H](C(=O)N(C(C)C)C(C)C)[C@@]2(C)c3[nH]c4ccc(Cl)cc4c3CCN2C1=O	inconclusive: 126 µM [inhibitor, single point]
O=C(O)CCc1ccc(S(=O)(=O)N2CCOCC2)cc1	inconclusive: 158 µM [inhibitor, partial curve, poor fit]
CCOc1ccc(Nc2cc(Nc3ccccc3OCC)nc(C=C(C#N)C#N)n2)cc1	inconclusive: 89.1 µM [inhibitor, single point]
C#CCNC(=O)C1=C[C@@H](c2csc3ccccc23)[C@H](CCCO)[C@@H](OCC)O1	inconclusive: 100 µM [inhibitor, single point]
O=C1/C(=C/c2ccccc2Br)CCc2ccccc21	inconclusive: 50.1 µM [inhibitor, partial curve, poor fit]
Cc1cc(Cl)ccc1NC(=O)Cn1nc(C)c2c(C)n(-c3ccccc3)nc2c1=O	inactive
O=c1cc2c(nn1Cc1ccc(Cl)cc1Cl)-c1ccccc1CC2	inconclusive: 31.6 µM [inhibitor, single point]
Cc1ccc2nc(NC(=O)C3CCN(S(=O)(=O)c4cccc5nsnc45)CC3)sc2c1	inconclusive: 100 µM [inhibitor, partial curve, poor fit]
O=C(Cn1nc(N2CCN(c3ccccc3)CC2)ccc1=O)NC1CC1	inconclusive: 39.8 µM [inhibitor, partial curve, poor fit]

Reformatted in markdown: part of the list above.

| Structure (SMILES) | Potency |
| --- | --- |
| COc1ccc(N2CCN(C(c3ccccc3)c3nnnn3C(C)(C)C)CC2)cc1 (stereo not drawn) | inconclusive: 112 µM [inhibitor, single point] |
| O=c1cc2c(nn1Cc1ccc(Cl)cc1Cl)-c1ccccc1CC2 | inconclusive: 31.6 µM [inhibitor, single point] |

Source: PubChem BioAssay AID1671190 (National Center for Advancing Translational Sciences (NCATS), 2021)
